Experimental data as given in US11237155B2, “Screening methods using olfactory receptors and novel compounds identified using the same” (MARS, INCORPORATED, priority 2016, dated 2022).

Tested on: Cat OR5A1
Assay: CNG chAMPion assay, OR_9 (OR5A1), cat ortholog
Assay type: cell-based
Settings: cat OR5A1, phase 3
Source text: This example refers to the functional expression of different feline and canine olfactory receptors (ORs). 20 OR sequences were selected, where 10 sequences have feline origins and the remaining 10 have canine origins. These ORs were subcloned into a modified expression vector suitable for the transient, functional expression of ORs. The transiently expressed receptors were then stimulated with various concentrations of different odorants aiming to deorphanize the feline and canine ORs. […] Functional expression of the different OR sets were transient in reporter cell line A or B. The transiently transfected ORs were stimulated with 3 concentrations (n=4) of different odorants (at least 3).
chAMPion (CNG channel) assay. […]
Twenty-four hours later, the cell medium was removed manually and cells were incubated in 20 μL/well coelenterazine (11 μM) in Tyrode buffer with 0 mM calcium for 3.5 h at 37° C. Plates were then read in a luminescence plate reader (FLIPR^TETRA, Molecular Devices) with the following camera settings: exposure time: 0.533 s, maximum gain. Luminescence was recorded for 1 min after addition of 10 μL/well compounds (3× solutions prepared in Tyrode buffer with 0 mM calcium), followed by an incubation period of 30 min at 37° C. Luminescence was again recorded for 1 min after addition of 20 μL/well Tyrode buffer with 10 mM CaCl2. […]

CC(C)CC(=O)O [isovaleric acid, Isovaleric acid]
receptor response (dose-response, fold change): weaker responses
